Source: patent publication US20250340607A1 (UNIVERSITY OF CHICAGO, published 2025)
No constants are given. Whether binding was seen depends on the method and setting. Some binding calls cover weakened binding; strength is not graded here. Sequences can lack the tags named with a protein.

Target: T1, murine Flt3 (R&D 768-F3-050) (murine, UniProt Q00342 28-544)
T1 construct: Bought recombinant protein coated on the ELISA plate; also called receptor for Flt3L; recombinant CD135
T1 sequence (looked up): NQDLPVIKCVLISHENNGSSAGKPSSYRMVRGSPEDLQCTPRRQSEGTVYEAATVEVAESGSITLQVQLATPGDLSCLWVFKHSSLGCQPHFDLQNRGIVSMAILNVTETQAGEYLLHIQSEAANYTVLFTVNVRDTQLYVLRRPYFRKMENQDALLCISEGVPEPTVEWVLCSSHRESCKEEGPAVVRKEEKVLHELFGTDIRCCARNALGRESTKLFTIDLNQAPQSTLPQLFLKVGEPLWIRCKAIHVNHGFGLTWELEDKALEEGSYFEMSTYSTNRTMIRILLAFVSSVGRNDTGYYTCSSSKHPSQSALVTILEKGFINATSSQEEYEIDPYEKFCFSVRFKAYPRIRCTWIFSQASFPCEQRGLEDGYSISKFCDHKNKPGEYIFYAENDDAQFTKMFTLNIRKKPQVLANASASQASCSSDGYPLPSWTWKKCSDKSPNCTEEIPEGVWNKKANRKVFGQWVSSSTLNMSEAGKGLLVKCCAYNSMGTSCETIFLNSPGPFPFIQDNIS
Experiment: CD135 binding ELISA: plate coated with 10 nM recombinant CD135

binding: binds
B1: Flt3L fused to Mouse Serum Albumin (Flt3L-MSA) (other)
chain: MTPDCYFSHSPISSNFKVKFRELTDHLLKDYPVTVAVNLQDEKHCKALWSLFLAQRWIEQLKTVAGSKMQTLLEDVNTEIHFVTSCTFQPLPECLRFVQTNISHLLKDTCTQLLALKPCIGKACQNFSRCLEVQCQPDSSTLLPPRSPIALEATELPEPRPRQGGGGSGGGGSEAHKSEIAHRYNDLGEQHFKGLVLIAFSQYLQKCSYDEHAKLVQEVTDFAKTCVADESAANCDKSLHTLFGDKLCAIPNLRENYGELADCCTKQEPERNECFLQHKDDNPSLPPFERPEAEAMCTSFKENPTTFMGHYLHEVARRHPYFYAPELLYYAEQYNEILTQCCAEADKESCLTPKLDGVKEKALVSSVRQRMKCSSMQKFGERAFKAWAVARLSQTFPNADFAEITKLATDLTKVNKECCHGDLLECADDRAELAKYMCENQATISSKLQTCCDKPLLKKAHCLSEVEHDTMPADLPAIAADFVEDQEVCKNYAEAKDVFLGTFLYEYSRRHPDYSVSLLLRLAKKYEATLEKCCAEANPPACYGTVLAEFQPLVEEPKNLVKTNCDLYEKLGEYGFQNAILVRYTQKAPQVSTPTLVEAARNLGRVGTKCCTLPEDQRLPCVEDYLSAILNRVCLLHEKTPVSEHVTKCCSGSLVERRPCFSALTVDETYVPKEFKAETFTFHSDICTLPEKEKQIKKQTALAELVKHKPKATAEQLKTVMDDFAQFLDTCCKAADKDTCFSTEGPNLVTRCKDALAHHHHHH
notes: also called MSA fused Flt3L; Flt3L-SA
